Read-outs that look alike come from different tables or passages of the source.
Key:
[1] = exchange of borane with BMS (complexing ability of borate esters), 11B NMR; type: physicochemical; details: BMS and borate ester mixed at 3:1 molar ratio, at equilibrium
[2] = exchange of borane with BH3.THF (complexing ability of borate esters), 11B NMR; type: physicochemical; details: BH3.THF and borate ester mixed at 3:1 molar ratio; THF in large excess, less quantitative
[3] = hydroboration of 1-octene; details: neat, room temperature
[4] = prior art; cited from earlier work
[5] = odor; details: hydroxysulfides

Row | SMILES | exchange, BH3.THF [2] | HB of 1-octene [3] | other results
1 | CC(C)(C)SCCOB(OCCSC(C)(C)C)OCCSC(C)(C)C [8a, Tris 2-(tert-butylthio)ethyl!borate] | 68% | – | exchange, BMS [1]: 8%
2 | CC(C)CCSCCOB(OCCSCCC(C)C)OCCSCCC(C)C [8b, Tris 2-(Isoamylthio)ethyl!borate] | 67% | – | exchange, BMS [1]: 0%
3 | CCSCCOCCOB(OCCOCCSCC)OCCOCCSCC [8c, Tris 2-2-(Ethylthio)ethoxy!ethyl!borate] | 83% | – | exchange, BMS [1]: 28%
4 | CC(C)(C)SCCOCCOB(OCCOCCSC(C)(C)C)OCCOCCSC(C)(C)C [8d, Tris 2-2-(tert-Butylthio)ethoxy!ethyl!borate] | 70% | – | exchange, BMS [1]: 11%
5 | CC(C)CCSCCOCCOB(OCCOCCSCCC(C)C)OCCOCCSCCC(C)C [8e, Tris 2-2-(Isoamylthio)ethoxy!ethyl!borate] | 75% | – | exchange, BMS [1]: 0%
6 | CCSCCOCCOCCOB(OCCOCCOCCSCC)OCCOCCOCCSCC [8f, Tris 2-2-2-(Ethylthio)ethoxy!ethoxy!ethyl borate] | 81% | – | –
7 | CC(C)(C)SCCOCCOCCOB(OCCOCCOCCSC(C)(C)C)OCCOCCOCCSC(C)(C)C [8g, Tris 2-2-2-(tert-Butylthio)ethoxy!ethoxy!ethyl!borate] | 68% | – | –
8 | CC(C)CCSCCOCCOCCOB(OCCOCCOCCSCCC(C)C)OCCOCCOCCSCCC(C)C [8h, Tris 2-2-2-(Isoamylthio)ethoxy!ethoxy!ethyl!borate] | 66% | – | –
9 | COCCSCCOB(OCCSCCOC)OCCSCCOC [8i, Tris 2-(2-Methoxyethylthio)ethyl!borate] | 62% | – | exchange, BMS [1]: 0%
10 | [BH3-][S+](CCOB(OCC[S+]([BH3-])C(C)(C)C)OCC[S+]([BH3-])C(C)(C)C)C(C)(C)C (centres unmarked) [9a, Tris 2-(tert-Butylthio)ethyl!borate borane adduct (1:3)] | – | 15 min | –
11 | [BH3-][S+](CCOB(OCC[S+]([BH3-])CCC(C)C)OCC[S+]([BH3-])CCC(C)C)CCC(C)C (centres unmarked) [9b] | – | 15 min | –
12 | [BH3-][S+](CC)CCOCCOB(OCCOCC[S+]([BH3-])CC)OCCOCC[S+]([BH3-])CC (centres unmarked) [9c, tris 2-2-(Ethylthio)ethoxy!ethyl!borate borane adduct (1:3)] | – | 15 min | –
13 | [BH3-][S+](CCOCCOB(OCCOCC[S+]([BH3-])C(C)(C)C)OCCOCC[S+]([BH3-])C(C)(C)C)C(C)(C)C (centres unmarked) [9d, tris 2-2-(tert-Butylthio)ethoxy!ethyl!borate borane adduct (1:3)] | – | 15 min | –
14 | [BH3-][S+](CCOCCOB(OCCOCC[S+]([BH3-])CCC(C)C)OCCOCC[S+]([BH3-])CCC(C)C)CCC(C)C (centres unmarked) [9e, tris 2-2-(Isoamylthio)ethoxy!ethyl borate borane adduct (1:3)] | – | 15 min | –
15 | [BH3-][S+](CC)CCOCCOCCOB(OCCOCCOCC[S+]([BH3-])CC)OCCOCCOCC[S+]([BH3-])CC (centres unmarked) [9f, tris 2-2-2-(Ethylthio)ethoxy!ethoxy!ethyl!borate borane adduct (1:3)] | – | 15 min | –
16 | [BH3-][S+](CCOCCOCCOB(OCCOCCOCC[S+]([BH3-])C(C)(C)C)OCCOCCOCC[S+]([BH3-])C(C)(C)C)C(C)(C)C (centres unmarked) [9g, tris 2-2-2-(tert-Butylthio)ethoxy!ethoxy!ethyl!borate borane adduct (1:3)] | – | 15 min | –
17 | [BH3-][S+](CCOCCOCCOB(OCCOCCOCC[S+]([BH3-])CCC(C)C)OCCOCCOCC[S+]([BH3-])CCC(C)C)CCC(C)C (centres unmarked) [9h, tris 2-2-2-(Isoamylthio)ethoxy!ethoxy!ethyl!borate borane adduct (1:3)] | – | 15 min | –
18 | [BH3-][S+](CCOC)CCOB(OCC[S+]([BH3-])CCOC)OCC[S+]([BH3-])CCOC (centres unmarked) [9i, tris 2-(2-Methoxyethylthio)ethyl!borate borane adduct (1:3)] | – | 15 min | –
19 | [BH3-][S+]1CCOCC1 [Borane-1,4-thioxane] | – | – | odor [4]: milder odor than dimethyl sulfide
20 | CCSCCOCCOCCO [Et--SCH2 CH2 OCH2 CH2 OCH2 CH2 OH, 2-2-2-(ethylthio)ethoxy!ethoxy!ethanol] | – | – | odor [5]: very mild
21 | CCSCCOCCO [EtSCH2 CH2 OCH2 CH2 OH, 2-2-(ethylthio)ethoxy!ethanol] | – | – | odor [5]: very mild
22 | COCCSCCO [H3 COCH2 CH2 SCH2 CH2 OH, 2-(2-methoxyethylthio)ethanol] | – | – | odor [5]: mild
23 | CSC [dimethyl sulfide] | – | – | odor [4]: very noxious odor
24 | CC(C)(C)SCCOCCOCCO [t-BuSCH2 CH2 OCH2 CH2 OCH2 CH2 OH, 2-2-2-(tert-butylthio)ethoxy!ethoxy!ethanol] | – | – | odor [5]: mild
25 | CC(C)(C)SCCOCCO [t-BuSCH2 CH2 OCH2 CH2 OH, 2-2-(tert-butylthio)ethoxy!ethanol] | – | – | odor [5]: mild
26 | CC(C)(C)SCCO [t-BuSCH2 CH2 OH, 2-(tert-butylthio)ethanol] | – | – | odor [5]: mild
